According to publication PMC12766925, “Functional assembly of the Qc-SNARE with Sec18 and Sec17 on membranes” (Molecular Biology of the Cell, 2025):
Results are given in words; binding and its absence hold for the method and conditions named. A result given as binding can be weak or reduced; the word gives no strength.

Biological target: the three soluble Q-SNAREs (yeast (Saccharomyces Genome Database ids))
Experiment: liposome floatation (density gradient) with immunoblot; protein-free VML liposomes, 2 µM Sec17 and 2 µM soluble SNAREs as indicated, Rb150, 0.04% defatted BSA, 1 mM MgCl2, 27°C 1 h; floated through Histodenz; Sec17 on liposomes by Western blot; both purified

binding: binds
B1: Sec17 (natural protein, UniProt P32602 1-292, looked up)
chain: MSDPVELLKRAEKKGVPSSGFMKLFSGSDSYKFEEAADLCVQAATIYRLRKELNLAGDSFLKAADYQKKAGNEDEAGNTYVEAYKCFKSGGNSVNAVDSLENAIQIFTHRGQFRRGANFKFELGEILENDLHDYAKAIDCYELAGEWYAQDQSVALSNKCFIKCADLKALDGQYIEASDIYSKLIKSSMGNRLSQWSLKDYFLKKGLCQLAATDAVAAARTLQEGQSEDPNFADSRESNFLKSLIDAVNEGDSEQLSEHCKEFDNFMRLDKWKITILNKIKESIQQQEDDLL
notes: Sec17, yeast, YBL050W; Plasmid from Schwartz and Merz, 2009; also called Sec17/SNAP; wild-type Sec17; source: E. coli Rosetta2(DE3), purified (chitin resin, DTT cleavage, dialysed into Rb150)
